The target of the assay is TNF-α–induced protein 3-interacting protein 1 (TNIP1) (human (endogenous in HaCaT)) (UniProt Q15025). The experiment in a line: co-IP; HaCaT cells lysed in ice-cold Pierce IP lysis buffer; TNIP1 complex precipitated with anti-TNIP1 antibody and detected with anti-Erk2 antibody, and the reverse; Protein A-Sepharose beads; naive IgG as negative control.

Sequences of proteins named here, by UniProt entry; tags and fusion partners are left off.
UniProt Q15025: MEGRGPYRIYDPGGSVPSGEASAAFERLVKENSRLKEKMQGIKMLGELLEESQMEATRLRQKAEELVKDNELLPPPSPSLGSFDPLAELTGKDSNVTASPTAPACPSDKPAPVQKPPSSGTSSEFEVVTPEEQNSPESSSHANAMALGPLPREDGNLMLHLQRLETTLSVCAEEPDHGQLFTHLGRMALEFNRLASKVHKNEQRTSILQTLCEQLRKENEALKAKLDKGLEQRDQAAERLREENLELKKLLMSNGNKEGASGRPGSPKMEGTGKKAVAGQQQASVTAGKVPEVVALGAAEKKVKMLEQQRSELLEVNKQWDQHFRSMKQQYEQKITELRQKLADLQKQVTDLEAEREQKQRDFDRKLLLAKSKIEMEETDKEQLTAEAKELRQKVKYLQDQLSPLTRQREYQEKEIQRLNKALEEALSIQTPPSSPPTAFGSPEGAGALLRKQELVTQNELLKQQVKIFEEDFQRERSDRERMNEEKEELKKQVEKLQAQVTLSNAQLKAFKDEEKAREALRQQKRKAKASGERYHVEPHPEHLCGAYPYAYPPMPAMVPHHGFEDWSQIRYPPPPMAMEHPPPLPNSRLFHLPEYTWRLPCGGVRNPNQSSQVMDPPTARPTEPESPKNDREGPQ
UniProt P28482: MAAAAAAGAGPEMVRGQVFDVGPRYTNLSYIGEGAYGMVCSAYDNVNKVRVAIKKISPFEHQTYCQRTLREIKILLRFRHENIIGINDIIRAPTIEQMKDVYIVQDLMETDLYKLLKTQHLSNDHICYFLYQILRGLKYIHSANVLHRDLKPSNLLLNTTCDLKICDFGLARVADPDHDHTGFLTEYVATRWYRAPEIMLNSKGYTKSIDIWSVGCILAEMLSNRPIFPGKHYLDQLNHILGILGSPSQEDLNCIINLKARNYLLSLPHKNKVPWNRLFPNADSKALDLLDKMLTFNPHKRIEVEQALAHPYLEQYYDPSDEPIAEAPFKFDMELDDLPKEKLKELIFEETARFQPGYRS

We go through 1 substance from paper PMC4457880.

No constants are given. Whether binding was seen depends on the method and setting. In cells and extracts the contact can be indirect. Some binding calls cover weakened binding; strength is not graded here.

“extracellular signal-regulated kinase 2 (Erk2) (from UniProt P28482 1-360)”: the binding result is given as “binds”.
